No constants are given. Whether binding was seen depends on the method and setting. Some binding calls cover weakened binding; strength is not graded here.
Key:
[1] = target: full-length cynoTIGIT on CHO cells (monkey (cyno)); assay: FACS on CHO-cynoTIGIT cells
[2] = target: full-length cynoTIGIT on CHO cells (monkey (cyno)); assay: FACS titration on CHO-cynoTIGIT cells, PE goat anti-mouse IgG
[3] = target: full-length cynoTIGIT on CHO cells (monkey (cyno)); assay: FACS on CHO-cynoTIGIT cells (figure legend)
[4] = target: T1, full-length human TIGIT on cells (human, UniProt Q495A1 22-244); assay: FACS on CHO-hTIGIT cells (figure legend)
T1 construct: whole, on cells; The same protein is used for CHO-hTIGIT, PBMC and NK92-hTIGIT; the cells are named under assay; also called CHO-hTIGIT; hTIGIT
T1 sequence (looked up): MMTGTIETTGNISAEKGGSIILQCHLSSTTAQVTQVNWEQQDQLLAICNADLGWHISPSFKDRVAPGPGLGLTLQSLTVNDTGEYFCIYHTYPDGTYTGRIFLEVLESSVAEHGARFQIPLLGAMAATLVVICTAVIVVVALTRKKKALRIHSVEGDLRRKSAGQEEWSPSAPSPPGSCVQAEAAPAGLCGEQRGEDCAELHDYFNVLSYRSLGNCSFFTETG

[5] = target: T1, full-length human TIGIT on cells; assay: FACS on PBMC of healthy people (naturally expressed TIGIT)
[6] = target: T1, full-length human TIGIT on cells; assay: FACS blocking: antibody on CHO-hTIGIT cells, then hPVR-hFc, PE anti-human IgG Fc; blocked ligand hPVR-hFc
Procedure: The CHO-engineered cells CHO-hTIGIT cells recombinantly expressing full-length human TIGIT were counted, and centrifugated at 300 g for 5 min, resuspended with an FCM buffer, and cell density was adjusted to 4E+06 cell/mL for later use. […] According to an experimental design, in each well, 50 μL of the antibody and 50 μL of the cell (the volume of each cell added into a 96-well V-shaped plate being 2E+05 cell/well) were respectively added in the 96-well V-shaped plate; and incubation was performed in dark on ice for 30 min. The ligand protein was added to the 96-well V-shaped plate (in 50 μL/well); and incubation was performed in dark on ice for 30 min. Centrifugation (300 g/5 min) was performed; supernatant was discarded; 200 μL of the FCM buffer was added for washing once; centrifugation (300 g/5 min) was performed; and the supernatant was discarded. Secondary antibodies (PE anti-human IgG Fc, 1:500 dilution) were added to the 96-well V-shaped plate (in 100 μL/well); and incubation was performed in dark on ice for 30 min. Centrifugation (300 g/5 min) was performed; supernatant was discarded; 200 μL of the FCM buffer was added for washing once; centrifugation (300 g/5 min) was performed; and the supernatant was discarded. 100 μL of the 1×PBS was added for resuspending, and on-machine detection was performed.

[7] = target: T2, hTIGIT-hFc (human, UniProt Q495A1 22-141); assay: FACS blocking: antibody preincubated with hTIGIT-hFc, then CHO-hPVR cells, PE anti-human IgG Fc; blocked partner PVR on cells
T2 construct: also called antigen protein hTIGIT-hFc; human TIGIT recombinant protein carrying a human Fc tag; not shown: human Fc tag
T2 sequence (looked up): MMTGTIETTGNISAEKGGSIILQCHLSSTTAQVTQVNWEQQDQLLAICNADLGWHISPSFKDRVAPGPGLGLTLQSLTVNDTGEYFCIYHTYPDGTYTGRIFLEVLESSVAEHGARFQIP
Procedure: The CHO-engineered cells CHO-hPVR cells recombinantly expressing full-length human PVR were counted centrifugated at 300 g for 5 min, resuspended with an FCM buffer, the cells were added to the 96-well V-shaped plate; the volume of each cell added into a 96-well V-shaped plate was 2E+05 cell/well (being added in 50 μL/well); and incubation was performed in dark on ice for 30 min. Centrifugation (300 g/5 min) was performed; supernatant was discarded; 200 μL of the FCM buffer was added for washing once; centrifugation (300 g/5 min) was performed; and the supernatant was discarded. Secondary antibodies (PE anti-human IgG Fc, 1:500 dilution) were added to the 96-well V-shaped plate (in 100 μL/well); and incubation was performed in dark on ice for 30 min. Centrifugation (300 g/5 min) was performed; supernatant was discarded; 200 μL of the FCM buffer was added for washing once; centrifugation (300 g/5 min) was performed; and the supernatant was discarded. 100 μL of the 1×PBS was added for resuspending, and on-machine detection was performed.

[8] = target: T1, full-length human TIGIT on cells; assay: FACS on PBMC of healthy people (figure legend)
[9] = target: T1, full-length human TIGIT on cells; assay: FACS on CHO-hTIGIT cells

Measured: binding

B1: 14Tigit-1-1 mouse monoclonal antibody (antibody, V domains shown)
VH: DVQLQESGPGLVKPSQSLSLTCTVTGYSITSDYAWNWIRQFPGNKLEWMGYISYSGSTRSNPSLKSRISITRDTSKNQFFLQLNSMTAEDTATYYCGGWEVRNYYAMDYWGQGTSVTVSS
VL: DIVMTQSHKFMSTSVGDRVSITCKASQHVSTAVAWYQQKPGQSPKLLIYSASYRYTGVPDRFTGSGSGTDFTFTISSVQAEDLAVYYCQQHYNTPWTFGGGTKLEIKR
notes: Mouse monoclonal antibody from hybridoma
binds: [1] | [2] | [3]

B2: 3Tigit-16 mouse monoclonal antibody (antibody, V domains shown)
VH: EVQLQQSGPELVKPGASVKMSCKASGFTFTDYFMDWVKQSRGASFEWIGRLNPNNGRTSYNQKFKGKATLTVDKSSSTAYMELNSLTSEDSAVYYCARGDLGRWYFDVWGAGTTVTVSS
VL: QIVLTQSPAIMSASPGEKVTMTCSASSSVSYMHWYQQKSGTSPKRWIYDTSKLASGVPTRFSGSGSGTSYSLTISSMEAEDAASYFCQQWSSNSLTFGAGTKLELKR
notes: as for B1
not listed: [2]
binds: all other assays above

B3: 3Tigit-29 mouse monoclonal antibody (antibody, V domains shown)
VH: EVQLQQSGPELVKPGASVKISCKASGYTFTDYNMHWVKQSLGKSLEWIGYVNSFNGNTGYSQKFKSKVTLTVDRSSRTAYMDLRSLTSEDSAVFYCARSSRGGFAYWGQGTLVTVSA
VL: QIVLTQSPAIMSASPGEKVTMTCSASSSVSYMHWYQQKSGTSPKRWIYDTSKLASGVPARFSGSVSGTSYSLTISSMEAEDAATYYCQQWSSNSLTFGAGTKLELKR
notes: as for B1
not listed: [2]
binds: all other assays above

B4: Tigit-5 mouse monoclonal antibody (antibody, V domains shown)
VH: QVQLQQPGAELVRPGASVKLSCKASGYSFTSYWMNWVKQRPGQGLEWIGMIRPSDSETRLNQMFKDKATLTVDKSSSTAYMQLSSPTSDDSAVYYCAGIHDYGHGAYWGQGTLVTVSA
VL: DIQMIQSPASLSVSVGETVTITCRASENIYSNLAWYQQKQGKSPQLLVYAASHLPDGVPSRFSGSGSGTQYSLKINSLQSEDFGSYYCQHFWGTPRTFGGGTKLEIKR
notes: as for B1
binds: [1] | [3]

Reference: patent US20240002500A1 (GUANGDONG FAPON BIOPHARMA, published 2024)
